According to PubChem BioAssay AID743266 (National Center for Advancing Translational Sciences (NCATS), 2014):
Out of some 410,000 compounds screened, about 310 (0.076%) were called active. Inconclusive results, whose numbers are uncertain, are shown with a selection of clear calls. The call rests on the fitted dose curve; in most records, active means well fitted activation curve with a large enough effect; inconclusive means small, poorly fitted or top-dose-only effect, or another doubt; inactive means no such curve, though single readings can be large or run the other way. A potency beside an inconclusive call is a rough fit, not a confirmed value.

Protein sequences, listed by entry. Tags and fused reporters are not part of them. Lines headed by an entry give the natural chain unless they say otherwise; changes in a name come on top.
UniProt Q03431: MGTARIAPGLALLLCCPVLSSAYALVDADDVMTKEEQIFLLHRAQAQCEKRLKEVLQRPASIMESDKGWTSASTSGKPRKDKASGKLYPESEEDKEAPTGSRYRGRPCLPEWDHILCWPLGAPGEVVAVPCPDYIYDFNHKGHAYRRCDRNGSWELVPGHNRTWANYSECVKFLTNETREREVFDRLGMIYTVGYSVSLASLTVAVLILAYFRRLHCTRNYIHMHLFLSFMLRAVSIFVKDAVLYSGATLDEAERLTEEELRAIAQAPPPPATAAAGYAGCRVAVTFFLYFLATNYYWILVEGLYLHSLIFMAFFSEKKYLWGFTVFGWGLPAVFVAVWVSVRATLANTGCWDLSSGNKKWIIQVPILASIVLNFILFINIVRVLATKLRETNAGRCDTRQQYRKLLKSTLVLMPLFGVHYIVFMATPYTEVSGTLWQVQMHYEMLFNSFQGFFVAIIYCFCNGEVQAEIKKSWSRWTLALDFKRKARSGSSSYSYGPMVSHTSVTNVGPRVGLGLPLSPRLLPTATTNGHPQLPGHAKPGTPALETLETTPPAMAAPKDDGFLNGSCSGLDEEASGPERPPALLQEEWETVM

target: Parathyroid hormone/parathyroid hormone-related peptide receptor (Homo sapiens) (UniProt Q03431); test: qHTS for PTHR1 Agonists: Primary Screen; conditions: HEK293 GP2 PTHR1 cells, GloSensor cAMP luminescence, 1 h; activation: at 115 µM (top of the series) unless noted; series mostly up to 115 µM; further: nearly all actives have a fitted effect of over 55% in size
How it was run: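 HEK-293-derived GP2 cells expressing PTHR1 and a GloSensor cAMP reporter, 3,000/well, plated overnight, given luciferin plus IBMX (each 0.5 mM as added) for 1 h at 37 °C, then compound for 1 h at 37 °C. Luminescence was read after 15 min at room temperature.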
Potency means the concentration at half of the fitted maximal effect.

Potency, inconclusive:
CCOC(=O)c1c2c(c(=S)n(-c3ccccc3)c1N)CCC2 39.8 µM [activator, single point], O=C(COC(=O)CCc1nc2ccccc2c(=O)[nH]1)NC1CCS(=O)(=O)C1 (stereo not given) 2.82 µM [activator, partial curve], Cc1cccc(C(=O)Nc2nnc(S(=O)(=O)N(C)Cc3ccco3)s2)c1 50.1 µM [activator, partial curve, poor fit], COc1cccc(NC(=O)CC(C)S(=O)(=O)c2ccc3c(c2)NC(=O)CO3)c1 (stereo not given) 17.8 µM [activator, partial curve, poor fit], CN1CCN(S(=O)(=O)c2ccc(NC(=S)NC(=O)C(C)(C)C)cc2)CC1 141 µM [activator, single point], Cc1ccc(C(C(=O)NC2CCCCC2)N(C(=O)Cc2c[nH]c3ccccc23)c2ccccc2)o1 (stereo not given) 44.7 µM [activator, single point], CCCCc1cc(=O)oc2cc(OCc3nn[nH]n3)c(Cl)cc12 63.1 µM [activator, single point], Cc1ccc(C(C(=O)NC2CCCC2)N(C(=O)c2csnn2)C2CC2)cc1 (stereo not given) 44.7 µM [activator, partial curve, poor fit], CCOc1c(Cl)cc(CNC(C)(C)CC(C)(C)C)cc1OC 3.98 µM [activator, single point], CCCCN(Cc1ccccc1)C(=O)CCN1C(=O)C2C3C=CC(C3)C2C1=O (stereo not given) 25.1 µM [activator, partial curve], CCOC(=O)c1ccc(NC(=S)N2CCCC2)cc1 8.91 µM [activator, full curve, poor fit], OC(CNCc1ccco1)Cn1c2ccc(Br)cc2c2cc(Br)ccc21 (stereo not given) 28.2 µM [activator, partial curve, poor fit], CC1(C)Cc2c(C#N)c(N)sc(=S)c2CO1 4.47 µM [activator, partial curve], COc1ccccc1CCNC(=O)C1CCCO1 (stereo not given) 14.1 µM [activator, single point], CCC(C)NC(=O)c1cn(CC)c2cc(N3CCN(C(=O)c4ccco4)CC3)c(F)cc2c1=O (stereo not given) 70.8 µM [activator, partial curve, poor fit], CCOC(=O)c1c(Nc2ccccc2N)cc(C)nc1C 50.1 µM [activator, single point], Cc1ccc(C)c(Cn2c3ccccc3c3cnn(CC(=O)NCCCc4ccccc4)c(=O)c32)c1 12.6 µM [activator, single point], Cc1ccccc1COC(=O)CCC1=NS(=O)(=O)c2ccccc2N1 141 µM [activator, single point], CCn1c(=O)c2cc(C(=O)N(CCN(C)C)Cc3ccccc3)sc2c2ccccc21 14.1 µM [activator, partial curve, poor fit], Cc1ccc(C(=O)N2CCN(C)CC2)cc1S(=O)(=O)N1CCOCC1 11.2 µM [activator, partial curve, poor fit], Cc1cccn2c(=O)c(C=NCc3ccccc3)c(NCCO)nc12 35.5 µM [activator, single point], Cc1cccc(NC(=O)N2CCC(CN3CCC(C)CC3)CC2)c1C 126 µM [activator, single point], CCCCC(C)n1[nH]c(=O)c2c(C)cc(C)nc21 (stereo not given) 141 µM [activator, single point], CSC(=N/N=C(\N)c1cnccn1)SC 126 µM [activator, single point], CCOC(=O)c1ccc(NC(=O)CSc2c(C(C)C)cnc3c2c(=O)n(C)c(=O)n3C)cc1 112 µM [activator, single point], CCCS(=O)(=O)c1nc(S(=O)(=O)c2ccc(C)cc2)c(N(CC)CC)s1 126 µM [activator, single point], O=c1c2cccnc2n(Cc2ccccc2F)c(=O)n1Cc1ccc(F)cc1 39.8 µM [activator, partial curve, poor fit], NNc1nc(-c2ccccc2)cc(-c2ccccc2)n1 50.1 µM [activator, partial curve], COc1ccc(-n2cc(C(=O)OCc3ccc(F)c(F)c3)c3ccccc3c2=O)cc1 89.1 µM [activator, partial curve, poor fit], O=C(COc1ccc(S(=O)(=O)N2CCOCC2)cc1)NCc1ccccn1 100 µM [activator, partial curve, poor fit], COc1ccc(CC2(CO)CCN(Cc3cnn(C)c3C)CC2)cc1 126 µM [activator, single point], C=CCNC(=S)N(C1CCCCC1)C1CCCCC1 141 µM [activator, single point], Cc1ccc(Sc2c(C)nn(C(=O)COc3ccc(F)cc3)c2C)cc1 50.1 µM [activator, partial curve, poor fit]

activation, inconclusive:
CCc1ccc(NC(=O)COC(=O)/C=C/c2c(C)nn(C3CCS(=O)(=O)C3)c2Cl)cc1 (stereo not given) 62.8% [activator], COc1ccc(CNC(=O)CN(c2cc(C)cc(C)c2)S(=O)(=O)c2c(C)[nH]c(=O)[nH]c2=O)cc1 30.3% [activator], COCCN1CCN(c2c(C)c(C)nc3cc(-c4cccc(OC)c4)nn23)CC1 58.3% [activator], N=C1C(c2nc3ccccc3s2)=C(O)CN1Cc1ccco1 -3.25% [activator] [at 57.5 µM], Cc1c(O)ccc(-c2[nH]ncc2-c2nc3ccccc3s2)c1O -30.4% [activator] [at 57.5 µM], CCN(Cc1ccccc1)S(=O)(=O)c1c(C)[nH]c(C)c1C(=O)N1CCCC1 -76.7% [activator], CCc1ccccc1NC(=O)NCc1ccc2c(c1)CCN2C(=O)c1ccccc1 -75.4% [activator], CC(=O)NC1(c2ccccc2)CCN(c2cc(C)nc(-c3ccccc3)n2)CC1 59% [activator], O=C(OCCOCCN=C1NS(=O)(=O)c2ccccc21)c1ccncc1 61.9% [activator] [at 57.5 µM], Cc1ccccc1/C=N\NC(=O)c1ccccc1-n1cccc1 39.6% [activator], C(=N\Nc1nn2cnnc2c2ccccc12)/c1ccco1 35.2% [activator]

activation, inactive:
CCc1c(C#N)c(SCCC(=O)Nc2ccc(C)cc2)nc2c1C(=O)CC(C)(C)C2 -0.547% [at 57.5 µM], Cc1ccc(C2CCN(C(=O)c3cnn(-c4ccc(C)cc4)c3C3CCN(C(=O)OC(C)(C)C)CC3)C2)cc1 (stereo not given) -4.43%, C#CCOCCOCCOCCNc1nc(N2CCN(C(=O)Cn3cc(CCO)nn3)CC2)nc(N2CCN(C(=O)[C@H](Cc3ccc(O)cc3)n3cc(CCO)nn3)CC2)n1 -20.1%, CCN1C(=O)C(CC(=O)Nc2ccc(F)cc2)N(Cc2ccco2)C1=S (stereo not given) -1.42%, Cc1cc(C)c(NC(=O)C2CCN(c3nnc(C)c4c(C)n(-c5ccccc5)nc34)CC2)c(C)c1 23.5%, CCOC(=O)c1[nH]ncc1CN1CCCC(C(=O)c2cc(Cl)ccc2OC)C1 (stereo not given) -24.5%, Cn1c(CN2CCN(C(=O)c3ccccc3)CC2)nc2cc([N+](=O)[O-])ccc21 -10.6%, COc1ccc(NC(=O)CN2CCN(CC(=O)Nc3ccc(OC)cc3)CC2)cc1 -2.94%, O=[N+]([O-])c1cc(C(F)(F)F)cc([N+](=O)[O-])c1NCCNC(=S)Nc1ccc(Cl)c(Cl)c1 -33.4%, COc1cc(C(=O)NCCCc2nc3ccccc3n2CC(C)C)cc(OC)c1OC -11.2%, O=S1(=O)CCOC[C@H](c2ccccc2)N1Cc1cccc(Cl)c1 -1%, O=C(c1ccccc1[N+](=O)[O-])N1N=C(c2ccccc2)CC1(O)C(F)(F)F (stereo not given) -0.728%, O=C1C=CC2(O[C@H](c3ccccc3)[C@@H](c3ccccc3)O2)[C@H](Sc2ccccc2O)C1 -33%, CC(OCC(O)CN(C)CCOc1ccccc1)c1ccc(Cl)cc1 (stereo not given) -46.9% [at 57.5 µM], Cc1ccc(-c2cc(-c3ccc4c(c3)NC(=O)CO4)nc3c2COc2ccccc2-3)cc1 -14.4%, CCOC(=O)c1ccc(NC(=O)C2(c3ccc(OC)cc3)CCCC2)cc1 -25.1% [at 57.5 µM], CCN(CC)CCOC(=O)/C=C/c1ccccc1 -24.6%

outcome, inactive:
O=C(O)C(Cc1ccc(O)cc1)N1C(=O)c2c(Cl)c(Cl)c(Cl)c(Cl)c2C1=O (stereo not given), CC1=NN(c2ccccc2)C(=O)/C1=C/C=C/C=C/N(C)C, CC1Cc2ccccc2N1C(=O)CSc1ccccc1 (stereo not given) inactive [at 57.5 µM], COc1ccc(/C=C2\SC(=S)N(CCCC(=O)Nc3cc(C)on3)C2=O)cc1OC, O=C1CCC(C(=O)OCC(=O)c2ccccc2)N1 (stereo not given), CCCN1CCN(C(=O)C2CCN(c3ncnc4c3nc3n4CCCCC3)CC2)CC1, Cc1[nH]n(-c2ccccc2)c(=O)c1C=Nc1cccc2cccnc12, COc1ccccc1CNS(=O)(=O)c1cc(C)ccc1OC, COc1ccc(C(CC(=O)O)NC(=O)c2ccccc2)cc1OC (stereo not given)
